Measured values as given in publication doi:10.1101/2024.08.28.609967 (bioRxiv, 2024).
These are yes or no findings as the source states them, for the method shown. For some assays here: In cells and extracts the contact can be indirect. For some assays here: Binding can be weak; no strength is given. Values belong to the molecule of their own block, whether it stands above or below them.

The chains behind the UniProt entries cited, without tags or fusion partners. Where a name states a change or a piece, a line headed by the entry shows the natural chain unless it says otherwise. A line that says so, or that is headed by a name, gives the form on record, which may keep a tag or linker. Residues count along the entry.
UniProt Q9BXK5: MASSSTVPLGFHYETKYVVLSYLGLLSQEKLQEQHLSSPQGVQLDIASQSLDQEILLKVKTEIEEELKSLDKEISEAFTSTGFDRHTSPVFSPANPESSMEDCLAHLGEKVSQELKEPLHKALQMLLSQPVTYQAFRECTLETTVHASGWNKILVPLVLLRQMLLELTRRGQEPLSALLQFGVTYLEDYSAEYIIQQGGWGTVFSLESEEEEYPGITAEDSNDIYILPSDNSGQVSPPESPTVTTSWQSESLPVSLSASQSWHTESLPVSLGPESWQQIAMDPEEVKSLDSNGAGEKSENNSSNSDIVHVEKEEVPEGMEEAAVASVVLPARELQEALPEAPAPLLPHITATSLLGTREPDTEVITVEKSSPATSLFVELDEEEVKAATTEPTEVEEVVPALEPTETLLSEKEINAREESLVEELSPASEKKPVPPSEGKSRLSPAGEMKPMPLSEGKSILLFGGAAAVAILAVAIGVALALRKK
GFP-FIP200 C-terminal region (CTR) (residues 1429–1591) (Q8TDY2-2, form named): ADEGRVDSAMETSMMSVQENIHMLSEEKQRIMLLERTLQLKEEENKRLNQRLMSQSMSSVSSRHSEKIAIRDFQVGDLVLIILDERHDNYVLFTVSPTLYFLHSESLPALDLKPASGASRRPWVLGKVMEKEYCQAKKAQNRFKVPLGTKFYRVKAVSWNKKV

What was measured:
[1] = molecular target: BCL2L13-GST with mutated LIR/FIR motifs (human) (UniProt Q9BXK5); experiment: microscopy-based bead assay; glutathione beads coated with GST-tagged cargo receptors (5 uM), GFP-FIP200 CTR (1429-1591) as prey, 30 min; 25 mM Tris-HCl pH 7.4, 150 mM NaCl, 1 mM DTT; confocal imaging; both purified
[2] = molecular target: BNIP3(1–158aa)-GST (human); experiment: pull-down; beads coated with GST, NIX-GST or BNIP3-GST, incubated overnight with HeLa cell lysate; SDS-PAGE and western blot for WIPI proteins; only the target purified

binding [1]: no binding
Molecule: GFP-FIP200 C-terminal region (CTR) (residues 1429–1591) (from UniProt Q8TDY2-2 1429-1591) (domain or fragment)

binding [2]: binds
B1: WIPI2 (endogenous, HeLa) (protein, UniProt Q9Y4P8 1-454)
chain: MNLASQSGEAGAGQLLFANFNQDNTEVKGASRAAGLGRRAVVWSLAVGSKSGYKFFSLSSVDKLEQIYECTDTEDVCIVERLFSSSLVAIVSLKAPRKLKVCHFKKGTEICNYSYSNTILAVKLNRQRLIVCLEESLYIHNIRDMKVLHTIRETPPNPAGLCALSINNDNCYLAYPGSATIGEVQVFDTINLRAANMIPAHDSPLAALAFDASGTKLATASEKGTVIRVFSIPEGQKLFEFRRGVKRCVSICSLAFSMDGMFLSASSNTETVHIFKLETVKEKPPEEPTTWTGYFGKVLMASTSYLPSQVTEMFNQGRAFATVRLPFCGHKNICSLATIQKIPRLLVGAADGYLYMYNLDPQEGGECALMKQHRLDGSLETTNEILDSASHDCPLVTQTYGAAAGKGTYVPSSPTRLAYTDDLGAVGGACLEDEASALRLDEDSEHPPMILRTD
